No constants are given. Whether binding was seen depends on the method and setting. Binding seen in cells or lysates may run through a third protein. Some results given as binding are weak or reduced against the parent protein; the word gives no strength. For some of these results: Sequences can lack the tags named with a protein.
T1: Flag-PTRF (human) (UniProt Q6NZI2)
T1 sequence: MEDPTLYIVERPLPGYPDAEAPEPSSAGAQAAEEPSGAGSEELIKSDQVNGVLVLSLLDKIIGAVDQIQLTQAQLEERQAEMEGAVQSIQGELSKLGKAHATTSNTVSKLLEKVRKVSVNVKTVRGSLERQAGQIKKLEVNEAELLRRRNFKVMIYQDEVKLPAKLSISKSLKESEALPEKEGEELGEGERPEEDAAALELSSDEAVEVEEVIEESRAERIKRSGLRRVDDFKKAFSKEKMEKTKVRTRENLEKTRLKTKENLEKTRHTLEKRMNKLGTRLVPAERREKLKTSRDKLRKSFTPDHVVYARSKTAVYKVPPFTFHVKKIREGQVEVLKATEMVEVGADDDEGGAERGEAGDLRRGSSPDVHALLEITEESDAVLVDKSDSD

T2: Flag-SDPR (human) (UniProt O95810)
T2 sequence: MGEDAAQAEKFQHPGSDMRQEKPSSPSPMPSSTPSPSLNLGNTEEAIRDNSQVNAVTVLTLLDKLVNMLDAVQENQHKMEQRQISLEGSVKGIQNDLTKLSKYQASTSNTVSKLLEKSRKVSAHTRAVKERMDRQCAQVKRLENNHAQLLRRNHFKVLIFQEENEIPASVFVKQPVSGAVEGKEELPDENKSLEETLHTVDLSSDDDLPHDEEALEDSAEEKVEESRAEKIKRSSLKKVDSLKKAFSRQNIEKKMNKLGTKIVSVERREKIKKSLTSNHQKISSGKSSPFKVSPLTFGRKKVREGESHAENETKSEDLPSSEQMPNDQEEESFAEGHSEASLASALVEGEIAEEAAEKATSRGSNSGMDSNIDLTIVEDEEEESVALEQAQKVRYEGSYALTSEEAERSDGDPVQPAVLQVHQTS

T3: endogenous PTRF (human (endogenous in HeLa, U-2 OS, U251)) (UniProt Q6NZI2)
T3 sequence: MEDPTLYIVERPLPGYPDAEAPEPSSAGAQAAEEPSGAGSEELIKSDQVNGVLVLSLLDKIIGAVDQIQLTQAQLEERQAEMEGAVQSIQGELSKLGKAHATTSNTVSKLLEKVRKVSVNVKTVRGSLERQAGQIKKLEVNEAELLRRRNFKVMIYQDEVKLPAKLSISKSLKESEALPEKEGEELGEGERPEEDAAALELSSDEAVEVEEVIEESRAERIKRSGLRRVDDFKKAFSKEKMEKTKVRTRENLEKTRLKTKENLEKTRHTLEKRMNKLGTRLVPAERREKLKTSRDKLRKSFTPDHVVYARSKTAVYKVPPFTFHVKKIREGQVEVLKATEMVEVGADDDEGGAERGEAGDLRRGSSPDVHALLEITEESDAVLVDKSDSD

T4: Flag-UBE2O (UniProt Q9C0C9)
T4 sequence: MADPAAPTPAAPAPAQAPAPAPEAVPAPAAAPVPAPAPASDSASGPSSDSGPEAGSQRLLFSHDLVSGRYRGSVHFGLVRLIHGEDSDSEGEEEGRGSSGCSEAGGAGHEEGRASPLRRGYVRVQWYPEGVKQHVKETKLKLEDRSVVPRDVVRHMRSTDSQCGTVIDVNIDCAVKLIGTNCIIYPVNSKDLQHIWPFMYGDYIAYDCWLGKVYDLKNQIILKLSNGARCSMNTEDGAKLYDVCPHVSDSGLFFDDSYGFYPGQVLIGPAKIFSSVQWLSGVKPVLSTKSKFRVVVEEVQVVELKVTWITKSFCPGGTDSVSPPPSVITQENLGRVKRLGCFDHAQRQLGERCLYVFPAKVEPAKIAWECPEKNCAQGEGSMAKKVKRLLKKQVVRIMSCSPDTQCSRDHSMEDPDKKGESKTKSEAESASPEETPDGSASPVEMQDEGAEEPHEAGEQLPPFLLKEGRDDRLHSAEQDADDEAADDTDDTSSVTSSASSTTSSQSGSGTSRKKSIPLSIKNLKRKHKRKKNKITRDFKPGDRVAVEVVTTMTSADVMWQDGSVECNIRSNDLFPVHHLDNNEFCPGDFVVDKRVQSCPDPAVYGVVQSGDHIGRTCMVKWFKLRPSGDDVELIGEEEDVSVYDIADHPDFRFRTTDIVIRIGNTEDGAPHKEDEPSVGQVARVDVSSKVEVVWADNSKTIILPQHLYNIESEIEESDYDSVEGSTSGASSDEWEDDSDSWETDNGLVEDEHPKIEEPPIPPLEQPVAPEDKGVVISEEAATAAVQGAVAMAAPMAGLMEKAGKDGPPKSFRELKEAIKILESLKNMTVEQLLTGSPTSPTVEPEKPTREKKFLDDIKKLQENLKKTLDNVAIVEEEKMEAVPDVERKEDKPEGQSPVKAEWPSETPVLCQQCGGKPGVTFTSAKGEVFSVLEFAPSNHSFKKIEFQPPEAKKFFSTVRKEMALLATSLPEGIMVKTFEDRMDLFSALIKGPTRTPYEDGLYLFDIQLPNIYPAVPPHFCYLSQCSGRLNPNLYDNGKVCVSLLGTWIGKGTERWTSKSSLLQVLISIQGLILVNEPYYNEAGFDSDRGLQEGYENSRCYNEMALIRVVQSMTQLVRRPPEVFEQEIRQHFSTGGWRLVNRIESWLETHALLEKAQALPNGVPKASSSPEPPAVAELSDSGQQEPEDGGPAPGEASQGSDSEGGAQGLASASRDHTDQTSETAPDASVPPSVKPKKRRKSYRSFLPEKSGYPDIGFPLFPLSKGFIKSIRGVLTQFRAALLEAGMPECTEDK


Columns and labels:
Flag-PTRF (human) = target: T1, Flag-PTRF (human); assay: co-IP; semi-endogenous; HeLa cells expressing the Flag-tagged bait, Flag M2 beads, endogenous partner detected by western blot; for PTRF with SDPR with or without overexpressed UBE2O-Myc
Flag-SDPR (human) = target: T2, Flag-SDPR (human); assay: as above
[1] = target: T3, endogenous PTRF (human (endogenous in HeLa, U-2 OS, U251)); assay: co-IP; endogenous; U251 cells, a PTRF high cell line (Figure S1C); precipitating antibody not given
[2] = target: T3, endogenous PTRF (human (endogenous in HeLa, U-2 OS, U251)); assay: co-IP; endogenous; HeLa lysate with PTRF antibody overnight, protein A resin 2 h; western blot
[3] = target: T3, endogenous PTRF (human (endogenous in HeLa, U-2 OS, U251)); assay: co-IP; endogenous; U-2 OS cells (Figure S1B); precipitating antibody not given
Flag-UBE2O = target: T4, Flag-UBE2O; assay: co-IP; semi-endogenous; HeLa cells expressing the Flag-tagged bait, Flag M2 beads, endogenous partner detected by western blot; for PTRF with SDPR with or without overexpressed UBE2O-Myc

binding (Flag-PTRF (human)) | binding (Flag-SDPR (human)) | binding [1] | binding [2] | binding [3] | binding (Flag-UBE2O) | Binder
binds | binds | binds | binds | binds | – | endogenous UBE2O (enzyme, UniProt Q9C0C9 1-1292) MADPAAPTPAAPAPAQAPAPAPEAVPAPAAAPVPAPAPASDSASGPSSDSGPEAGSQRLLFSHDLVSGRYRGSVHFGLVRLIHGEDSDSEGEEEGRGSSGCSEAGGAGHEEGRASPLRRGYVRVQWYPEGVKQHVKETKLKLEDRSVVPRDVVRHMRSTDSQCGTVIDVNIDCAVKLIGTNCIIYPVNSKDLQHIWPFMYGDYIAYDCWLGKVYDLKNQIILKLSNGARCSMNTEDGAKLYDVCPHVSDSGLFFDDSYGFYPGQVLIGPAKIFSSVQWLSGVKPVLSTKSKFRVVVEEVQVVELKVTWITKSFCPGGTDSVSPPPSVITQENLGRVKRLGCFDHAQRQLGERCLYVFPAKVEPAKIAWECPEKNCAQGEGSMAKKVKRLLKKQVVRIMSCSPDTQCSRDHSMEDPDKKGESKTKSEAESASPEETPDGSASPVEMQDEGAEEPHEAGEQLPPFLLKEGRDDRLHSAEQDADDEAADDTDDTSSVTSSASSTTSSQSGSGTSRKKSIPLSIKNLKRKHKRKKNKITRDFKPGDRVAVEVVTTMTSADVMWQDGSVECNIRSNDLFPVHHLDNNEFCPGDFVVDKRVQSCPDPAVYGVVQSGDHIGRTCMVKWFKLRPSGDDVELIGEEEDVSVYDIADHPDFRFRTTDIVIRIGNTEDGAPHKEDEPSVGQVARVDVSSKVEVVWADNSKTIILPQHLYNIESEIEESDYDSVEGSTSGASSDEWEDDSDSWETDNGLVEDEHPKIEEPPIPPLEQPVAPEDKGVVISEEAATAAVQGAVAMAAPMAGLMEKAGKDGPPKSFRELKEAIKILESLKNMTVEQLLTGSPTSPTVEPEKPTREKKFLDDIKKLQENLKKTLDNVAIVEEEKMEAVPDVERKEDKPEGQSPVKAEWPSETPVLCQQCGGKPGVTFTSAKGEVFSVLEFAPSNHSFKKIEFQPPEAKKFFSTVRKEMALLATSLPEGIMVKTFEDRMDLFSALIKGPTRTPYEDGLYLFDIQLPNIYPAVPPHFCYLSQCSGRLNPNLYDNGKVCVSLLGTWIGKGTERWTSKSSLLQVLISIQGLILVNEPYYNEAGFDSDRGLQEGYENSRCYNEMALIRVVQSMTQLVRRPPEVFEQEIRQHFSTGGWRLVNRIESWLETHALLEKAQALPNGVPKASSSPEPPAVAELSDSGQQEPEDGGPAPGEASQGSDSEGGAQGLASASRDHTDQTSETAPDASVPPSVKPKKRRKSYRSFLPEKSGYPDIGFPLFPLSKGFIKSIRGVLTQFRAALLEAGMPECTEDK
binds | – | – | – | – | binds | endogenous SDPR (protein, UniProt O95810 1-425) MGEDAAQAEKFQHPGSDMRQEKPSSPSPMPSSTPSPSLNLGNTEEAIRDNSQVNAVTVLTLLDKLVNMLDAVQENQHKMEQRQISLEGSVKGIQNDLTKLSKYQASTSNTVSKLLEKSRKVSAHTRAVKERMDRQCAQVKRLENNHAQLLRRNHFKVLIFQEENEIPASVFVKQPVSGAVEGKEELPDENKSLEETLHTVDLSSDDDLPHDEEALEDSAEEKVEESRAEKIKRSSLKKVDSLKKAFSRQNIEKKMNKLGTKIVSVERREKIKKSLTSNHQKISSGKSSPFKVSPLTFGRKKVREGESHAENETKSEDLPSSEQMPNDQEEESFAEGHSEASLASALVEGEIAEEAAEKATSRGSNSGMDSNIDLTIVEDEEEESVALEQAQKVRYEGSYALTSEEAERSDGDPVQPAVLQVHQTS

— publication PMC9703712
